Data as given in PubChem BioAssay AID1224828 (NIAID, 2016).
The deposit covers about 17,000 reagents; below is a part drawn at random. Of all reagents, 762 (4.5%) were called active. 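Active calls include both raised and lowered p65 entry, mostly lowered; wells with fewer than 50 cells lack a z-score.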 Raw values are not corrected between plates. Reagent sequences are not shown.

Assay: 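Regulators linking TLR4 signalling to p65 nuclear translocation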 (primary screen)
System: mouse RAW264.7 G9 macrophage reporter cells (GFP-p65, Tnf promoter-mCherry)
Reagent: siRNA pool against mouse genes, 100 nM
Timing: 2 days siRNA transfection, then 40 min LPS before fixation
Challenge: LPS (Salmonella minnesota R595) at 10 ng/ml
Read-out: 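Microscopy ratio of nuclear to perinuclear-ring GFP-p65 signal, scaled to the plate median; gene score is the average of two replicate robust z-scores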
Reading the numbers: p65 translocation robust z-score: higher = more nuclear NF-kappaB p65 after LPS than the plate median; nuclear/cytoplasmic p65 ratio: higher = more nuclear NF-kappaB p65
Call rule: 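Called active when z exceeds 3.3 or falls under -1.56 (median of Tlr4 controls), giving activity score of at least 50; no calls for control wells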
Calls: active = hit (p65 shift raised or lowered); inactive = no clear change

With knock-down of Yipf1 (Yip1 domain family, member 1), the screen gave p65 translocation robust z-score 2.25; nuclear/cytoplasmic p65 ratio, rep 1 = 1.64; nuclear/cytoplasmic p65 ratio, rep 2 = 1.93; low cell count flag enough cells to score; inactive. Against Slc25a22, the values are nuclear/cytoplasmic p65 ratio, rep 1 = 1.29; nuclear/cytoplasmic p65 ratio, rep 2 = 1.15; low cell count flag fewer than 50 cells per well; well left out of scoring; inactive. Against Vmn1r14 (vomeronasal 1 receptor 14), the entry reads p65 translocation robust z-score 0.23; nuclear/cytoplasmic p65 ratio, rep 1 = 1.47; nuclear/cytoplasmic p65 ratio, rep 2 = 1.21; low cell count flag enough cells to score; inactive. Against Rad21 (RAD21 cohesin complex component), the entry reads p65 translocation robust z-score 0.85; nuclear/cytoplasmic p65 ratio, rep 1 = 1.79; nuclear/cytoplasmic p65 ratio, rep 2 = 1.49; low cell count flag enough cells to score; inactive. Tbpl2 (TATA box binding protein like 2) showed p65 translocation robust z-score -0.39; nuclear/cytoplasmic p65 ratio, rep 1 = 1.25; nuclear/cytoplasmic p65 ratio, rep 2 = 1.21; low cell count flag enough cells to score; inactive. After knock-down of Naa15 (N(alpha)-acetyltransferase 15, NatA auxiliary subunit) the results were p65 translocation robust z-score -0.22; nuclear/cytoplasmic p65 ratio, rep 1 = 1.41; nuclear/cytoplasmic p65 ratio, rep 2 = 1.32; low cell count flag enough cells to score; inactive.

Ctnnd1 (catenin delta 1) showed p65 translocation robust z-score -0.3; nuclear/cytoplasmic p65 ratio, rep 1 = 1.36; nuclear/cytoplasmic p65 ratio, rep 2 = 1.34; low cell count flag enough cells to score; inactive. Pex14 (peroxisomal biogenesis factor 14) scored p65 translocation robust z-score 0.36; nuclear/cytoplasmic p65 ratio, rep 1 = 1.49; nuclear/cytoplasmic p65 ratio, rep 2 = 1.47; low cell count flag enough cells to score; inactive. After knock-down of C230071H18Rik (retired record) the results were nuclear/cytoplasmic p65 ratio, rep 1 = 1.15; nuclear/cytoplasmic p65 ratio, rep 2 = 1.39; low cell count flag fewer than 50 cells per well; well left out of scoring; inactive. For Prnd (prion like protein doppel), the entry reads p65 translocation robust z-score -1.06; nuclear/cytoplasmic p65 ratio, rep 1 = 1.39; nuclear/cytoplasmic p65 ratio, rep 2 = 1.24; low cell count flag enough cells to score; inactive. With knock-down of Ms4a4b (membrane-spanning 4-domains, subfamily A, member 4B), the record shows p65 translocation robust z-score -0.74; nuclear/cytoplasmic p65 ratio, rep 1 = 1.66; nuclear/cytoplasmic p65 ratio, rep 2 = 1.48; low cell count flag enough cells to score; inactive. Against Sgk1 (serum/glucocorticoid regulated kinase 1) the deposit lists p65 translocation robust z-score 0.45; nuclear/cytoplasmic p65 ratio, rep 1 = 1.96; nuclear/cytoplasmic p65 ratio, rep 2 = 1.43; low cell count flag enough cells to score; inactive.

After knock-down of Mrps33 (mitochondrial ribosomal protein S33), the screen gave p65 translocation robust z-score -0.02; nuclear/cytoplasmic p65 ratio, rep 1 = 1.85; nuclear/cytoplasmic p65 ratio, rep 2 = 1.53; low cell count flag enough cells to score; inactive. Klhl20 (kelch-like 20) showed p65 translocation robust z-score -0.66; nuclear/cytoplasmic p65 ratio, rep 1 = 1.45; nuclear/cytoplasmic p65 ratio, rep 2 = 1.38; low cell count flag enough cells to score; inactive. Cdc20 (cell division cycle 20) scored p65 translocation robust z-score -0.05; nuclear/cytoplasmic p65 ratio, rep 1 = 1.43; nuclear/cytoplasmic p65 ratio, rep 2 = 1.4; low cell count flag enough cells to score; inactive. Against Fas (Fas cell surface death receptor) the deposit lists p65 translocation robust z-score -1.76; nuclear/cytoplasmic p65 ratio, rep 1 = 1.25; nuclear/cytoplasmic p65 ratio, rep 2 = 1.29; low cell count flag enough cells to score; active. Against Hic1 (hypermethylated in cancer 1), the values are p65 translocation robust z-score -0.98; nuclear/cytoplasmic p65 ratio, rep 1 = 1.31; nuclear/cytoplasmic p65 ratio, rep 2 = 1.24; low cell count flag enough cells to score; inactive. Against Rheb (Ras homolog enriched in brain) the deposit lists p65 translocation robust z-score -0.08; nuclear/cytoplasmic p65 ratio, rep 1 = 1.46; nuclear/cytoplasmic p65 ratio, rep 2 = 1.55; low cell count flag enough cells to score; inactive.

Knock-down of Ppm1m (protein phosphatase 1M) resulted in: nuclear/cytoplasmic p65 ratio, rep 1 = 1.24; nuclear/cytoplasmic p65 ratio, rep 2 = 1.09; low cell count flag fewer than 50 cells per well; well left out of scoring; inactive. Against Mrps16 (mitochondrial ribosomal protein S16) the deposit lists p65 translocation robust z-score 0.62; nuclear/cytoplasmic p65 ratio, rep 1 = 2.01; nuclear/cytoplasmic p65 ratio, rep 2 = 1.58; low cell count flag enough cells to score; inactive. Knock-down of Il6ra (interleukin 6 receptor, alpha) resulted in: p65 translocation robust z-score -0.1; nuclear/cytoplasmic p65 ratio, rep 1 = 1.42; nuclear/cytoplasmic p65 ratio, rep 2 = 1.4; low cell count flag enough cells to score; inactive.

3 successive records from above, for reference:
Tbpl2 (TATA box binding protein like 2) | p65 translocation robust z-score = -0.39; nuclear/cytoplasmic p65 ratio, rep 1 = 1.25; nuclear/cytoplasmic p65 ratio, rep 2 = 1.21; low cell count flag = enough cells to score; outcome = inactive
Naa15 (N(alpha)-acetyltransferase 15, NatA auxiliary subunit) | p65 translocation robust z-score = -0.22; nuclear/cytoplasmic p65 ratio, rep 1 = 1.41; nuclear/cytoplasmic p65 ratio, rep 2 = 1.32; low cell count flag = enough cells to score; outcome = inactive
Ctnnd1 (catenin delta 1) | p65 translocation robust z-score = -0.3; nuclear/cytoplasmic p65 ratio, rep 1 = 1.36; nuclear/cytoplasmic p65 ratio, rep 2 = 1.34; low cell count flag = enough cells to score; outcome = inactive
